Results published in patent CN114478784A.
Results are given in words; binding and its absence hold for the method and conditions named. Some entries that bind do so weakly or less than the wild type.

The chains behind the UniProt entries cited, without tags or fusion partners.
UniProt P09104: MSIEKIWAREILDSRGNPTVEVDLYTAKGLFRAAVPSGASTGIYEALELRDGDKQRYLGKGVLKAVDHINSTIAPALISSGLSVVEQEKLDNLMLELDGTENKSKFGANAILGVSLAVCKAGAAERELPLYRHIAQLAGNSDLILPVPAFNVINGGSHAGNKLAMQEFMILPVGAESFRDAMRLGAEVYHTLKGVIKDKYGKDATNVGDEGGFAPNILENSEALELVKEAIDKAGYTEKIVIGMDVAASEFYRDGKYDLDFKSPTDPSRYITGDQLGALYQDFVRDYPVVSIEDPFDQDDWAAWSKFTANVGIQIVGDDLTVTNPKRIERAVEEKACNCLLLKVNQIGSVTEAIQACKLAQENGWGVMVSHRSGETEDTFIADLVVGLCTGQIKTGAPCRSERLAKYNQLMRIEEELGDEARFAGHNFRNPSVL

Experiments:
[1] = target: 纯化的ENO2蛋白 (purified ENO2 protein coated in Example 7) (UniProt P09104); assay: ELISA result of step 2, restated after the immunofluorescence expression check
[2] = target: 纯化的ENO2蛋白 (purified ENO2 protein coated in Example 7) (UniProt P09104); assay: ELISA, purified ENO2 coated at 100 ng/well, 293T supernatant, HRP secondary, OD450

binding [1]: binds
binding [2]: binds
Substance: 重组1C5单克隆抗体 (1C5mG1+1C5mk co-transfected in 293T cells) (from UniProt P01868 1-324; P01837 1-107) (antibody)
